According to patent US10851367B2 (Pfizer Inc., priority 2015, dated 2020):
For part of these data: Where a sequence shows no end group, the ends are not given.

What was measured:
[1] = general procedure: Fmoc solid-phase peptide synthesis; Fmoc-Ala-Wang resin; Fmoc-Cys(Trt)-CTC resin; HBTU / N-methylmorpholine; details: TFA salt
[2] = general procedure: Fmoc solid-phase peptide synthesis; Fmoc-Ala-Wang resin; HBTU / N-methylmorpholine; details: whole synthesis, scale 5 mmol, TFA salt
[3] = general procedure: Fmoc solid-phase peptide synthesis; Fmoc-Cys(Trt)-CTC resin; HBTU / N-methylmorpholine; details: whole synthesis, HPLC (HP1090, Phenomenex C18), UV 220 nm, scale of the general procedure 1.0 mmol, 5 mmol, TFA salt
[4] = whole synthesis, 220 nm, scale of the general procedure 1.0 mmol, 5 mmol
[5] = whole synthesis, HPLC (HP1090, Phenomenex C18), UV 220 nm, scale of the general procedure 1.0 mmol, 5 mmol
[6] = late stage modification step, 220 nm

## Ac-CGLFHALLHLLHSLWHLLLHA
[1]; [4]
  final HPLC purity: 95.6%

## Ac-CGLFHALLHLLHSLWHLLLHA-OH
[1]; [5]
  final HPLC purity: 90% by UV

## Ac-Cys(NPys)-GLFHALLHLLHSLWHLLLHA
[1]; [6]
  final HPLC purity: 95.6%
[1]; late stage modification step
  step yield: 66%

## Ac-Cys(NPys)-PEG3-GLFHALLHLLHSLWHLLLHA
[1]; [6]
  final HPLC purity: 95.4%
[1]; late stage modification step
  step yield: 27%

## Ac-Cys(NPys)-PEG-WEAKLAKALAKALAKHLAKALAKALKASEA
[1]; [4]
  final HPLC purity: 95.1%

## Ac-Cys(NPys)-WEAKLAKALAKALAKHLAKALAKALKASEA
[1]; [4]
  final HPLC purity: 95.7%

## Ac-Cys-PEG-Gly-Leu-Phe-His-Ala-Leu-Leu-His-Leu-Leu-His-Ser-Leu-Trp-His-Leu-Leu-Leu-His-Ala-OH
[1]; [5]
  final HPLC purity: 85% by HPLC

## Ac-Cys-dPEG4-GLFHALLHLLHSLWHLLLHA
[1]; [4]
  final HPLC purity: 95.3%

## Ac-Gly(propargyl)-GLFHALLHLLHSLWHLLLHA
[1]; [4]
  final HPLC purity: 95.4%

## CWEAKLAKALAKALAKHLAKALAKALKACEA
[1]; [4]
  final HPLC purity: 97.2%

## GLFHALLHLLHSLWHLLLHA
[1]; [4]
  final HPLC purity: 95.4%
[2]
  isolated mass: 5.18 g

## GLFHALLHLLHSLWHLLLHA-Cys(NPys)-OH
[1]; [6]
  final HPLC purity: 95.3%
[1]; late stage modification step
  step yield: 25%

## GLFHALLHLLHSLWHLLLHAC
[1]; [4]
  final HPLC purity: 95.3%

## H-GLFHALLHLLHSLWHLLLHAC-OH
[3]
  final HPLC purity: 75% by HPLC

## SPDP-dPEG8-GLFHALLHLLHSLWHLLLHA
[1]; conjugation step
  conjugation yield: 40%

## WEAKLAKALAKALAKHLAKALAKALKACEA
[1]; [4]
  final HPLC purity: 95.6%

## WEAKLAKALAKALAKHLAKALAKALKASEA-Cys(NPys)-OH
[1]; [4]
  final HPLC purity: 95.8%
